From the supplement of paper PMC10398353
Where a name gives a salt, the structure may show the parent alone. ± gives the standard deviation of the averaged measurements. This is one part of the list. Single values of this set are uncertain.

These compounds were tested on Salmonella enterica serovar Typhimurium ST313 D23580 (assay: normalized bacterial growth (OD600 20 h minus 0 h, interquartile-mean normalized) (fraction of plate interquartile mean); higher = more bacterial growth (less inhibition)). Conditions: LPM (pH 5.8, low phosphate, low Mg2+), concentration: 10 µM, temperature: 37 °C.

Row | SMILES | normalized bacterial growth
1 | Nc1ncnc2c1ncn2[C@@H]1O[C@@H]2COP(=O)(O)O[C@H]2[C@H]1O ["Adenosine 3',5'-cyclic monophosphate"] | 0.998
2 | CC1=C(/C=C/C(C)=C/C=C/C(C)=C/C=C/C=C(C)/C=C/C=C(C)/C=C/C(=O)[C@]2(C)C[C@@H](O)CC2(C)C)C(C)(C)C[C@H](O)C1 | 0.764
3 | C[C@H]1[C@H]2CC[C@H]3[C@@H]4CC=C5C[C@@H](N(C)C)CC[C@]5(C)[C@H]4CC[C@]23CN1C [Conessine] | 1.25
4 | C[C@H]1[C@H]2CC[C@H]3[C@@H]4CC=C5C[C@@H](N(C)C)CC[C@]5(C)[C@H]4CC[C@]23CN1C | 1.14 ± 0.049
5 | CC(C)C(=O)c1c(C(C)C)nn2ccccc12 [Ibudilast] | 1.04
6 | C[N+](C)(C)C[C@H](O)CC(=O)[O-] | 1.19
7 | CC(C)=CCC[C@@H](C)[C@@H]1CC[C@]2(C)C3=C(CC[C@@]12C)[C@@]1(C)CC[C@H](O)C(C)(C)[C@@H]1CC3 | 1.14
8 | CC(C)NCC(O)COc1cccc2[nH]ccc12 (configuration not stated) [Pindolol] | 1.35
9 | OC(CCN1CCCC1)(c1ccccc1)C1CCCCC1 (configuration not stated) | 0.886
10 | CC(=O)/C(=C\c1ccccc1)CC(=O)O | 0.543
11 | CC(CN(C)C)CN1c2ccccc2CCc2ccccc21 (configuration not stated) [Trimipramine maleate] | 0.845
12 | COC(=O)[C@H]1[C@H]2C[C@H]3c4[nH]c5ccccc5c4CCN3C[C@H]2CC[C@@H]1O [Rauwolscine hydrochloride] | 1.21
13 | COC(=O)[C@H]1[C@H]2C[C@H]3c4[nH]c5ccccc5c4CCN3C[C@H]2CC[C@@H]1O | 0.93
14 | COC(=O)C(C)(N)Cc1ccc(O)cc1 (racemic) [alpha-Methyl-DL-tyrosine methyl ester hydrochloride] | 1.1
15 | CCCCOc1ccc(C(=O)CCN2CCCCC2)cc1 | 0.819
16 | C=C1C(=O)O[C@H]2[C@H]1CC/C(C)=C/CC[C@@]1(C)O[C@@H]21 | 0.86 ± 0.081
17 | C=C1C(=O)O[C@H]2[C@H]1CC/C(C)=C/CC[C@@]1(C)O[C@@H]21 [Parthenolide] | 1.01
18 | COc1cccc(O)c1O | 1.05
19 | COc1ccc(CCn2nnnc2C2(c3ccc(C)cc3)CC2)cc1 [Mephetyl tetrazole] | 0.916
20 | CC(C)(C)CC(C)(C)c1ccc(OCCOCC[N+](C)(C)Cc2ccccc2)cc1 | 1.58
21 | COc1ccc(CCC(=O)c2c(O)cc(O[C@@H]3O[C@H](CO)[C@@H](O)[C@H](O)[C@H]3O[C@@H]3O[C@@H](C)[C@H](O)[C@@H](O)[C@H]3O)cc2O)cc1O | 1.1
22 | CC(C)(C)NC(=O)[C@H]1CC[C@H]2[C@@H]3CC[C@H]4NC(=O)C=C[C@]4(C)[C@H]3CC[C@]12C [Finasteride] | 1

2 entries drawn at random from those above:
Row | SMILES | normalized bacterial growth
10 | CC(=O)/C(=C\c1ccccc1)CC(=O)O | 0.543
7 | CC(C)=CCC[C@@H](C)[C@@H]1CC[C@]2(C)C3=C(CC[C@@]12C)[C@@]1(C)CC[C@H](O)C(C)(C)[C@@H]1CC3 | 1.14
